3 sequences from PMC12305957 can be followed below.

Construct, isoform or probe ends are uncertain for at least one entry. For part of these data: At least one verdict rests on a figure or table, not on a statement of the authors. Where a protein sequence is shown, tags need not be part of it.

Data set [1] deals with T1, Abf1 (Saccharomyces cerevisiae) (UniProt P14164).
T1 sequence (looked up, limits assumed): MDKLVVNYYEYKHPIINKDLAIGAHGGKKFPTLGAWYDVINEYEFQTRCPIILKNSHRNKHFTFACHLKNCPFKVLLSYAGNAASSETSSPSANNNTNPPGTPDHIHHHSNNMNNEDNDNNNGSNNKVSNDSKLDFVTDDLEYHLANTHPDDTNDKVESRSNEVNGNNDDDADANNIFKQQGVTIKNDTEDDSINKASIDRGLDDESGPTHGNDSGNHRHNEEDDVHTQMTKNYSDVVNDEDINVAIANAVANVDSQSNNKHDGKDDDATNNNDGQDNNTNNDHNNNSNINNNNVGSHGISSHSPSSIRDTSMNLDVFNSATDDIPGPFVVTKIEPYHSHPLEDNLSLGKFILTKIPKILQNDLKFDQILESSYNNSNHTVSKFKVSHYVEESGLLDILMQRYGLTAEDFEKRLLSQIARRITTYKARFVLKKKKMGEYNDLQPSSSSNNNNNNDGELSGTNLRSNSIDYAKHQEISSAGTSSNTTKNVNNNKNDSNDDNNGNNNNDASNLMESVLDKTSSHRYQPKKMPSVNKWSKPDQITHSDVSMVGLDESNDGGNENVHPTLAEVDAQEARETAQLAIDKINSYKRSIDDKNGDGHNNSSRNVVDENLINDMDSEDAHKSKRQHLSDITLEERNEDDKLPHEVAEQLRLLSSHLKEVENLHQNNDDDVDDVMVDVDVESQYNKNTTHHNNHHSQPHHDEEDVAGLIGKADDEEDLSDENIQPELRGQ
Kind of data set: EMSA. The conditions noted are these: naked DNA; 11.87 mM HEPES-KOH pH 7.9, 3 mM Tris-Cl, 96.67 mM NaCl, 3.33 mM KCl, 5.3 mM MgCl2, 0.13 mM Mg acetate, 1.33 uM ZnCl2, 0.05% NP-40, 10% glycerol, 100 ug/mL BSA, 2 mM DTT; recombinant protein; protein details: His; label: 5' IRDye700 strand 1.

For data set [2], the target named is T2, Reb1 (Saccharomyces cerevisiae) (UniProt P21538).
T2 sequence (looked up, limits assumed): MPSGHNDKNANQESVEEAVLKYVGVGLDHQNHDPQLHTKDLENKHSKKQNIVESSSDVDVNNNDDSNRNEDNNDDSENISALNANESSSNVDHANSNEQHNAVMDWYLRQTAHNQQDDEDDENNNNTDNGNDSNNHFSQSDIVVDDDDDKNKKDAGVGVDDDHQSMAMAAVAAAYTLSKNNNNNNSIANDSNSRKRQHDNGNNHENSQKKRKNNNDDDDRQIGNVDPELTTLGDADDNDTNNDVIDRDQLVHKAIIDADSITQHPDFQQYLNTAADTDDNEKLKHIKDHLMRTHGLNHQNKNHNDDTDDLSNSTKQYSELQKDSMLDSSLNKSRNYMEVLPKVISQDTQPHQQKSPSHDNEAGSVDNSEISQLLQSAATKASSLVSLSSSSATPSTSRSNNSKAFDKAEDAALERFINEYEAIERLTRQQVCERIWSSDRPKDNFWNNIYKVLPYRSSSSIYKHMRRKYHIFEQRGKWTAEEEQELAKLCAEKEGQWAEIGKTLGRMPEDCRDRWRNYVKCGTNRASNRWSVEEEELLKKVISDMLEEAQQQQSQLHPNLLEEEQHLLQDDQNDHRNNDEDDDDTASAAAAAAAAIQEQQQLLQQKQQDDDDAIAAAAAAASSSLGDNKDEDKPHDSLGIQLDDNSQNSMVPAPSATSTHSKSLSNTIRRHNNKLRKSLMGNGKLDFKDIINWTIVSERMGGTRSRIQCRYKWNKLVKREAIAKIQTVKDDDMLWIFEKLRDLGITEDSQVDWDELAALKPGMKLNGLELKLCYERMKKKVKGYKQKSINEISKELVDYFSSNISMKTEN
Kind of data set: EMSA. The conditions noted are these: naked DNA; 11.87 mM HEPES-KOH pH 7.9, 3 mM Tris-Cl, 96.67 mM NaCl, 3.33 mM KCl, 5.3 mM MgCl2, 0.13 mM Mg acetate, 1.33 uM ZnCl2, 0.05% NP-40, 10% glycerol, 100 ug/mL BSA, 2 mM DTT; recombinant protein; protein details: His; label: 5' IRDye700 strand 1.

In data set [3] the target is T1, Abf1 (Saccharomyces cerevisiae). Kind of data set: competition with a labelled probe. The conditions noted are these: unlabeled chaser 100x, efficient competitor for all Abf1 probes; 11.87 mM HEPES-KOH pH 7.9, 3 mM Tris-Cl, 96.67 mM NaCl, 3.33 mM KCl, 5.3 mM MgCl2, 0.13 mM Mg acetate, 1.33 uM ZnCl2, 0.05% NP-40, 10% glycerol, 100 ug/mL BSA, 2 mM DTT; recombinant protein; protein details: His.

As for “ACAGGATGTATATATCTGACACGTGCCTGGAGACTAGGGAGTAATCCCCTTGGCGGTTAAAACGCGGGGGACAGCGCGTACGTGCGTTTAAGCGGTGCTAGAGCTGTCTACGACCAATTGAGCGGCCTCGGCACCGGGATTCTCCAGGGCGGCCGCTTATCGTATAAAGTGATAGGGTGATGACCGCGGACCTGCAGGCATGCAAGCTTGAGTATTCTATAGTGTCA (double strand) [A3G naked DNA probe]”, in data set [1], the binding result was “binds”.
In the case of “ACAGGATGTATATATCTGACACGTGCCTGGAGACTAGGGAGTAATCCCCTTGGCGGTTAAAACGCGGGGGACAGCGCGTACGTGCGTTTAAGCGGTGCTAGAGCTGTCTACGACCAATTGAGCGGCCTCGGCACCGGGATTCTCCAGGGCGGCCGGCCGGGTAACGCATCACCATGGTGATGACCGCGGACCTGCAGGCATGCAAGCTTGAGTATTCTATAGTGTCA (double strand) [G-GC naked DNA probe]”, the binding result in data set [2] is given as “binds”.
Regarding “GGCCGCTTATCGTATAAAGTGATAGGGTGATGACCGCGGACCTGCA / GGTCCGCGGTCATCACCCTATCACTTTATACGATAAGC [Abf1 A3G chaser]”, the binding result in data set [3] is listed as “binds”.
